# Experimental data: PubChem BioAssay AID504834 (National Center for Advancing Translational Sciences (NCATS), 2011)
# About 22,000 (6.9%) of roughly 320,000 compounds were called active. The shares of active, inactive and inconclusive entries below differ from those in the screen. Calls come from the whole dose curve; as a rule, active = well fitted inhibition curve with a large enough effect; inconclusive = small, poorly fitted or top-dose-only effect, or another doubt; inactive = no such curve, though single readings can be large or run the other way. Potencies beside an inconclusive call are fits to weak or partial responses and may not hold up.
# Assay: Primary qHTS for delayed death inhibitors of the malarial parasite plastid, 96 hour incubation
# Conditions: P. falciparum luciferase reporter growth; series mostly up to 28.7 µM
# Method in brief: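 Two-generation exposure (96 h) targets delayed-death phenotype. Reporter parasites carrying integrated firefly luciferase, in red cells at 2% hematocrit and 0.05% parasitemia final, kept at 37 C, 5% CO2; luminescence loss indicates inhibition.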
# Potency is the fitted concentration of half-maximal effect.
row,SMILES,Potency
1,O=C(NC(=S)NCc1ccccc1)c1cccnc1,"inconclusive: 20.8 µM [inhibitor, partial curve, poor fit]"
2,COc1ccc(N=Nc2nc3ccc(Br)cc3n2C)cc1,inactive
3,Cc1cccn2c(=O)c(C=C(C#N)C#N)c(N3CCN(c4cccc(Cl)c4)CC3)nc12,"inconclusive: 2.33 µM [inhibitor, full curve, poor fit]"
4,CCCn1cnc2c(c1=O)c1nc3ccccc3nc1n2Cc1ccccc1OC,"inconclusive: 0.117 µM [inhibitor, full curve, poor fit]"
5,C#CCn1c(=NC(=O)c2ccc(S(=O)(=O)N3CCCc4ccccc43)cc2)sc2cc(S(N)(=O)=O)ccc21,active: 2.94 µM
6,Nc1nonc1-n1nnc(C(=O)N/N=C/C=C/c2ccccc2)c1CSC1=NCCS1,"inconclusive: 14.7 µM [inhibitor, single point]"
7,CCOc1ccc(-n2nc(C(=O)NCCOC)c3ccccc3c2=O)cc1,"inconclusive: 18.5 µM [inhibitor, single point]"
8,CCOC(=O)C1CCN(C(=O)c2ccccc2CCc2ccccc2)CC1,inactive
9,CCn1c2ccccc2c2cc(NC(=O)c3cccc(OC)c3OC)ccc21,active: 4.15 µM
10,Nc1nc(Cl)c(C=O)c(N2CCCCC2)n1,inactive
11,Cc1ccc(CN(C)C(=O)c2c(C)nn(-c3ccccc3)c2C)cc1,inactive
12,O=C(O)CCC(=O)Nc1ccc(N=Nc2ccccc2)cc1,inactive
13,Cc1ccc(-c2cc(C(F)F)n3ncc(C(=O)NCc4ccco4)c3n2)cc1,"inconclusive: 4.65 µM [inhibitor, partial curve, poor fit]"
14,CC(C)(C)[C@@H]1CCC(=O)N(CC[C@H](N=[N+]=[N-])c2ccccc2)CC1,"inconclusive: 5.22 µM [inhibitor, partial curve]"
15,C/C(=N\NC(=O)c1cccs1)C(C)(C)C,inactive
16,CC(C)C(=O)Nc1ccnc(-c2cccnc2)n1,inactive
17,CCOc1ccccc1N1CCN(S(=O)(=O)c2cccc3nsnc23)CC1,"inconclusive: 1.85 µM [inhibitor, full curve]"
18,C=C1C(=O)O[C@@H]2C[C@@H](C)[C@H]3C=CC(=O)[C@]3(O)C[C@@H]12,"inconclusive: 18.5 µM [inhibitor, single point]"
19,Cc1cccc(OCC(O)Cn2c(NCCCOC(C)C)nc3c2c(=O)[nH]c(=O)n3C)c1 (stereo unspecified),"inconclusive: 9.28 µM [inhibitor, single point]"
20,Oc1ccc(C(c2nnnn2CCc2ccccc2)N2CCN(c3nc4ccccc4s3)CC2)cc1 (stereo unspecified),"inconclusive: 6.57 µM [inhibitor, partial curve, poor fit]"
21,O=C(O)c1cn(Cc2ccccc2)c2ccc(Cl)cc2c1=O,inactive
22,CCC(C)NC(=O)c1ccccc1NC(=O)C1COc2ccccc2O1 (stereo unspecified),"inconclusive: 18.5 µM [inhibitor, partial curve, poor fit]"
23,Cc1nnc(SCC(=O)c2c(N)n(C3CC3)c(=O)[nH]c2=O)n1-c1ccccc1,"inconclusive: 6.57 µM [inhibitor, partial curve, poor fit]"
24,O=C(N/N=C/c1ccc(N2CCOCC2)s1)c1ccccc1Cl,"inconclusive: 11.7 µM [inhibitor, single point]"

row,SMILES,Potency
1,CCc1[nH]nc(C(=O)N2CCCC(C(=O)c3cccc(C(F)(F)F)c3)C2)c1C (stereo unspecified),inactive
2,CCN(CC)c1ccc(/C=C(/C#N)C(=O)NCc2ccccc2)o1,"inconclusive: 0.0329 µM [inhibitor, full curve, poor fit]"
3,CCCCN(C(=O)c1ccc([N+](=O)[O-])s1)c1c(N)n(CCCC)c(=O)[nH]c1=O,"inconclusive: 11.7 µM [inhibitor, single point]"
4,COc1ccc(N=C2SCC(c3ccccc3)=NN2C)cc1,inactive
5,CCc1nn(C(C)C(=O)NC(C)CCc2ccco2)c(=O)c2cc3occc3n12 (stereo unspecified),inactive
6,O=C(COC(=O)c1ccccc1Cc1ccccc1)NC1CCS(=O)(=O)C1 (stereo unspecified),inactive
7,CCN(CC(=O)Nc1c(F)cccc1F)C(=O)C1CCN(S(=O)(=O)c2ccc(C)cc2C)CC1,"inconclusive: 10.4 µM [inhibitor, partial curve, poor fit]"
8,C[C@H]1c2cccc(O)c2C(O)=C2C(=O)C3(O)C(O)=C(C(N)=O)C(=O)[C@@H](N(C)C)[C@@H]3[C@@H](O)[C@@H]21 (stereo partly specified),active: 0.37 µM
9,C=CCOC(=O)C1=C[C@@H](c2ccccc2)C[C@@H](OCc2ccc(CO)cc2)O1,"inconclusive: 11.7 µM [inhibitor, single point]"
10,Nc1nc(-c2ccccc2)c(N=Nc2ccccc2Cl)s1,"inconclusive: 0.37 µM [inhibitor, full curve, poor fit]"
11,COc1ccc(-c2nn(-c3ccccc3)cc2/C=N/Nc2ccccn2)cc1OC,active: 3.7 µM
12,COc1cc(CN2CCNC(=O)C2CC(=O)N(C)Cc2cccnc2)cc(OC)c1 (stereo unspecified),"inconclusive: 4.65 µM [inhibitor, partial curve, poor fit]"
13,COc1ccc(NC(=S)N2C3CCC2CC(NC(=O)NC24CC5CC(CC(C5)C2)C4)C3)c(OC)c1 (stereo unspecified),"inconclusive: 1.17 µM [inhibitor, full curve]"
14,Cc1ccc(S(=O)(=O)N2CCOCC2)cc1NC(=O)CN1CCN(C)CC1,inactive
15,CCN1CCN(CC(=O)N2N=C(c3cccs3)CC2c2ccc(OC)c(OC)c2)C(=O)C1=O (stereo unspecified),"inconclusive: 7.38 µM [inhibitor, partial curve, poor fit]"
16,Cn1cccc1C(=O)NCc1ccc(Cl)cc1,inactive
17,O=C(CCCSc1nc2ccccc2[nH]1)Nc1nnc(-c2ccccc2)o1,"inconclusive: 4.15 µM [inhibitor, partial curve]"
18,O=C(c1ccc2ccccc2c1)N1CCN(c2ccccc2)CC1,"inconclusive: 10.4 µM [inhibitor, single point]"
19,CCOC(=O)C1(Cc2cccc(Cl)c2)CCCN(C(=O)C(C)(C)C)C1 (stereo unspecified),inactive
20,CC1CN(C2=N/C(=C/c3ccc4c(c3)OCO4)C(=O)N2)CC(C)O1 (stereo unspecified),"inconclusive: 18.5 µM [inhibitor, single point]"
21,COc1ccc(CNC(=O)C(CCSC)NS(=O)(=O)c2ccccc2F)cc1 (stereo unspecified),inactive
22,COCCn1cnnc1SCC(=O)Nc1cc(OC)c([N+](=O)[O-])cc1C,"inconclusive: 2.62 µM [inhibitor, single point]"
23,COc1ccc(S(=O)(=O)N2CCN(C(=O)CN3C(=O)NC(C)(c4ccc5ccccc5c4)C3=O)CC2)cc1 (stereo unspecified),"inconclusive: 13.1 µM [inhibitor, partial curve]"
24,O=C(NNc1c2ccccc2nc2ccccc12)c1ccccc1O,active: 10.4 µM

# Four consecutive entries out of the list so far, for reference:
row,SMILES,Potency
21,COc1ccc(CNC(=O)C(CCSC)NS(=O)(=O)c2ccccc2F)cc1 (stereo unspecified),inactive
22,COCCn1cnnc1SCC(=O)Nc1cc(OC)c([N+](=O)[O-])cc1C,"inconclusive: 2.62 µM [inhibitor, single point]"
23,COc1ccc(S(=O)(=O)N2CCN(C(=O)CN3C(=O)NC(C)(c4ccc5ccccc5c4)C3=O)CC2)cc1 (stereo unspecified),"inconclusive: 13.1 µM [inhibitor, partial curve]"
24,O=C(NNc1c2ccccc2nc2ccccc12)c1ccccc1O,active: 10.4 µM

# Continuation.

row,SMILES,Potency
1,CCCC(=O)NC(c1cccs1)c1cc(Cl)c2cccnc2c1O (stereo unspecified),"inconclusive: 0.0185 µM [inhibitor, full curve, poor fit]"
2,CC(C)(C)NC(=O)CSc1nnc(-c2ccccn2)n1Cc1ccccc1,"inconclusive: 9.28 µM [inhibitor, single point]"
3,O=C(CSc1nc2ccccc2s1)N1CCOCC1,"inconclusive: 5.22 µM [inhibitor, partial curve, poor fit]"
4,Cc1n[nH]c(C)c1CCNC(=O)C1CCC(=O)N(Cc2ccccc2F)C1 (stereo unspecified),inactive
5,COc1cccc(N2CC(NC(=O)C(=O)c3c[nH]c4ccccc34)CC2=O)c1 (stereo unspecified),inactive
6,CCOC(=O)NC(=O)CSc1ccc(C)cc1C,"inconclusive: 4.15 µM [inhibitor, single point]"
7,Nc1nnc(SCC(=O)OCc2ccc(F)cc2)s1,inactive
8,CCCc1cc(=O)n2[nH]c(NCc3c(F)cccc3Cl)nc2n1,active: 11.7 µM
9,Cc1ccc(N=CC=C2OC(C)(C)C(C)(C)O2)cc1,"inconclusive: 5.22 µM [inhibitor, single point]"
10,O=C(Nc1ccc([N+](=O)[O-])cc1)c1cccc(S(=O)(=O)Nc2cccnc2)c1,"inconclusive: 9.28 µM [inhibitor, single point]"
11,CC(OC(=O)c1ccc(O)cc1)C(=O)Nc1cc(C(F)(F)F)ccc1Cl (stereo unspecified),"inconclusive: 16.5 µM [inhibitor, single point]"
12,CCOC(=O)C(C)c1nn(C)c(=O)c2ccccc12 (stereo unspecified),inactive
13,CCC(C)(C)NC(=O)C(c1cccn1C)N(C(=O)Cn1nnc2ccccc21)c1ccccc1OC (stereo unspecified),"inconclusive: 13.1 µM [inhibitor, single point]"
14,CCCc1nnc2n1N=C(c1ccc(C)cc1)CS2,"inconclusive: 18.5 µM [inhibitor, single point]"
15,Nc1nc(CCl)nc(Nc2cccc3ccccc23)n1,active: 13.1 µM
16,Cn1nc(C(=O)NCC2COc3ccccc3O2)c2ccccc2c1=O (stereo unspecified),"inconclusive: 18.5 µM [inhibitor, single point]"
17,CSCCn1c(C(C)(C)C)cc(C(=O)O)c1C,active: 8.28 µM
18,Cc1cn2nc(N)c3ccccc3c2n1,inactive
19,O=C(Nc1ccc(-c2ccco2)cc1)C1CCCN(Cc2ccc(CO)o2)C1 (stereo unspecified),inactive
20,C#Cc1ccc([C@@H]2C=C(C(=O)OCC=C)O[C@H](OCc3ccc(CO)cc3)C2)cc1,"inconclusive: 9.28 µM [inhibitor, partial curve, poor fit]"
21,Cc1ccc(CNC(=O)c2ccc(N3CCC4(CC3)CC(c3cccc(Br)c3)=NO4)c(NC(=O)c3ccccc3)c2)cc1,"inconclusive: 13.1 µM [inhibitor, single point]"
22,CCCOc1ccc(C(=O)Nc2ccc(NC(=O)c3cccs3)cc2)cc1,inactive
